Data: patent US20040229289A1, “Antigen binding peptides (abtides) from peptide libraries” (Cytogen Corporation, priority 1994, published 2004)
No constants are given. Whether binding was seen depends on the method and setting. Some results given as binding are weak or reduced against the parent protein; the word gives no strength. Where no end group is shown, it is not given here.

Sequences of proteins named here, by UniProt entry; tags and fusion partners are left off.
UniProt Q04609: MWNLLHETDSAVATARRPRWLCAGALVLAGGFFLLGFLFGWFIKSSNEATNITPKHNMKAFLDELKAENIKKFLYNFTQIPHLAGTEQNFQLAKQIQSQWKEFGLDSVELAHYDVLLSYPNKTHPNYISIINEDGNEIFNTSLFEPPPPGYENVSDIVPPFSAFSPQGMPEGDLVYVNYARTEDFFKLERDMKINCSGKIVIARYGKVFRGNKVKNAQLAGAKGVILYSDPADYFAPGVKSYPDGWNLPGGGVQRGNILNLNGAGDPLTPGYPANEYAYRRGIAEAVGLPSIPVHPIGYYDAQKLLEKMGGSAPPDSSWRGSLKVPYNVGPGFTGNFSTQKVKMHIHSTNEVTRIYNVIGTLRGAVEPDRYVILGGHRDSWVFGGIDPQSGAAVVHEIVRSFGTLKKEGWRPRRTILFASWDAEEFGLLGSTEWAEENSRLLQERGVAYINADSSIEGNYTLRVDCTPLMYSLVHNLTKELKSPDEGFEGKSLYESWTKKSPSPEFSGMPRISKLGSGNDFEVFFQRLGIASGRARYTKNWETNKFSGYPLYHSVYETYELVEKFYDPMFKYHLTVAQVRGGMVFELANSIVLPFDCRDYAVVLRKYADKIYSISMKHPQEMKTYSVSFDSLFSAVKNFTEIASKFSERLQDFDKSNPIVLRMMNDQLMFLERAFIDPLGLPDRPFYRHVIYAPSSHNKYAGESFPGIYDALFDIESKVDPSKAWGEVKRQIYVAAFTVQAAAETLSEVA

T1: PEM peptide (human)
T1 peptide: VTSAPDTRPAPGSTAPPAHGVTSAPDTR

B1: 7E11-C5 abtide clone 14 (peptide)
peptide: GIINANDPLPFWFMSPYTPGPAPIDINASRALVSNESG
notes: tested afterwards as synthetic 38-residue peptide (dot blot, ELISA, sandwich assay)
B2: A5 (peptide)
peptide: SASLWDALGGWTTSAVPSYPRPHQTPGR
B3: E44 (peptide)
peptide: GPLLPGEAAVHGARGLMRSGCGNGPTWNRLTAACRDSRNKGP
B4: E62 (peptide)
peptide: GPQGSEHQCCSGHWGLKFPGCGNGPICNNFTALRGASRKNGP

Legend:
[1] = biological target: native 7E11-C5 antigen in LNCaP lysates (Homo sapiens, UniProt Q04609); test: sandwich assay, abtide coated, LNCaP lysate captured, biotinylated 7E11-C5 as detector
PEM peptide [2] = biological target: T1, PEM peptide; test: phage panning on PEM peptide, R26 library, acid eluted
Procedure: A peptide comprising this sequence was synthesized and used to isolate abtides from TSAR peptide libraries by methods analogous to those described above. In these experiments, the specific TSAR libraries used were R26, D38 and DC43. See FIGS. 10-12 for description of these libraries. Phage bound to PEM were eluted by either standard acid elution methods, stringent acid elution methods where phage were incubated with the PEM peptide for only 10 minutes prior to washing and elution, or were eluted using excess PEM peptide. Phage from each library were isolated that express peptides capable of binding to PEM.

PEM peptide [3] = biological target: T1, PEM peptide; test: phage ELISA on PEM

Binder	binding (PEM peptide [3])	also measured
B1		binding [1]: binds
B2		binding (PEM peptide [2]): binds
B3	binds	
B4	binds	
